The target in the test is T1, wild-type human Claudin 5 protein (human, UniProt O00501 1-218).
T1 construct: also called hCLDN5; CLDN 5
T1 sequence: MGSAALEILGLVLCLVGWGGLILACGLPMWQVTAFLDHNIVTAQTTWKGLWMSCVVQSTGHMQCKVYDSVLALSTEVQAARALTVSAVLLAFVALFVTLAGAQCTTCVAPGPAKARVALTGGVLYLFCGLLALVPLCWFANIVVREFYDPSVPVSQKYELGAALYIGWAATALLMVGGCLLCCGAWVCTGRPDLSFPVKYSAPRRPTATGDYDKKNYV
In words: FACS screening of hybridoma supernatants on human Claudin 5-expressing HT-1080 cells against mock cells; positive clones.

Results are given in words; binding and its absence hold for the method and conditions named. Some binding calls cover weakened binding; strength is not graded here.

B1: antibody 4A1 (antibody, IgG2b, V domains shown)
VH: QVQLQQSGAELARPGASVKLSCKASGYTFTSYGISWVNQRTGQGLEWIGEIYPRSGNTYFNEKFQGKATLTADKSSSTAYMELRSLTSEDSAVFFCARPYEGYFDYWGQGTTLTVSS
VL: DIVLTQSPASLAVSLGQRATISCRASKSVSTSGYSYMHWYQQKPGQPPKLLIYLASNLESGVPARFSGSGSGTDFTLNIHPVEEEDAATYYCQHSRELPFTFGSGTKLEIKR
For the molecule B1, the binding entry was “binds”.

The values above are taken from patent US20200223915A1 (OSAKA UNIVERSITY, published 2020).
